Results are given in words; binding and its absence hold for the method and conditions named. Some results given as binding are weak or reduced against the parent protein; the word gives no strength. Values belong to the binder of their own block, whether it stands above or below them.
Columns and labels:
Hsp90 600-709 = Hsp90 600-709 (UniProt P02829); assay: pull-down; 70 µM Flag-Tah1 and Hsp90 600-709 with increasing AIP 172-315 or full-length AIP (5-10 molar excess); 20 mM HEPES pH 7.5, 150 mM NaCl, 10% glycerol, 0.5% IGEPAL, 2 mM EDTA; captured on anti-Flag M2 magnetic beads; eluate on SDS-PAGE; both purified
[1] = biological target: Flag-Tah1–cHsp90 complex (S. cerevisiae | not stated) (UniProt P25638+P02829); assay: condition: fivefold to tenfold excess over 70 µM Flag-Tah1 and Hsp90 600-709; pull-down; 70 µM Flag-Tah1 and Hsp90 600-709 with increasing AIP 172-315 or full-length AIP (5-10 molar excess); 20 mM HEPES pH 7.5, 150 mM NaCl, 10% glycerol, 0.5% IGEPAL, 2 mM EDTA; captured on anti-Flag M2 magnetic beads; eluate on SDS-PAGE; both purified

Protein sequences, listed by entry. Tags and fused reporters are not part of them. Lines headed by an entry give the natural chain unless they say otherwise; changes in a name come on top.
UniProt P25638: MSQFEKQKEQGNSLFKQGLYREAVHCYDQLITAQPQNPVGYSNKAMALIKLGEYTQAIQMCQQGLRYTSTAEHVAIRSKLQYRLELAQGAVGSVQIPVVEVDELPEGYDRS

binding (Hsp90 600-709): binds
binding [1]: no binding
B1: full-length AIP (protein, UniProt O00170 1-330)
chain: MADIIARLREDGIQKRVIQEGRGELPDFQDGTKATFHYRTLHSDDEGTVLDDSRARGKPMELIIGKKFKLPVWETIVCTMREGEIAQFLCDIKHVVLYPLVAKSLRNIAVGKDPLEGQRHCCGVAQMREHSSLGHADLDALQQNPQPLIFHMEMLKVESPGTYQQDPWAMTDEEKAKAVPLIHQEGNRLYREGHVKEAAAKYYDAIACLKNLQMKEQPGSPEWIQLDQQITPLLLNYCQCKLVVEEYYEVLDHCSSILNKYDDNVKAYFKRGKAHAAVWNAQEAQADFAKVLELDPALAPVVSRELRALEARIRQKDEEDKARFRGIFSH

binding (Hsp90 600-709): binds
binding [1]: no binding
B2: AIP 172-315 (domain or fragment, UniProt O00170 172-315)
chain: DEEKAKAVPLIHQEGNRLYREGHVKEAAAKYYDAIACLKNLQMKEQPGSPEWIQLDQQITPLLLNYCQCKLVVEEYYEVLDHCSSILNKYDDNVKAYFKRGKAHAAVWNAQEAQADFAKVLELDPALAPVVSRELRALEARIRQ
